Consider eight sequences from patent publication US20180066263.

By UniProt entry, the sequences of proteins in these tests, tags left out. Residues count along the entry.
UniProt P17948, 27-758: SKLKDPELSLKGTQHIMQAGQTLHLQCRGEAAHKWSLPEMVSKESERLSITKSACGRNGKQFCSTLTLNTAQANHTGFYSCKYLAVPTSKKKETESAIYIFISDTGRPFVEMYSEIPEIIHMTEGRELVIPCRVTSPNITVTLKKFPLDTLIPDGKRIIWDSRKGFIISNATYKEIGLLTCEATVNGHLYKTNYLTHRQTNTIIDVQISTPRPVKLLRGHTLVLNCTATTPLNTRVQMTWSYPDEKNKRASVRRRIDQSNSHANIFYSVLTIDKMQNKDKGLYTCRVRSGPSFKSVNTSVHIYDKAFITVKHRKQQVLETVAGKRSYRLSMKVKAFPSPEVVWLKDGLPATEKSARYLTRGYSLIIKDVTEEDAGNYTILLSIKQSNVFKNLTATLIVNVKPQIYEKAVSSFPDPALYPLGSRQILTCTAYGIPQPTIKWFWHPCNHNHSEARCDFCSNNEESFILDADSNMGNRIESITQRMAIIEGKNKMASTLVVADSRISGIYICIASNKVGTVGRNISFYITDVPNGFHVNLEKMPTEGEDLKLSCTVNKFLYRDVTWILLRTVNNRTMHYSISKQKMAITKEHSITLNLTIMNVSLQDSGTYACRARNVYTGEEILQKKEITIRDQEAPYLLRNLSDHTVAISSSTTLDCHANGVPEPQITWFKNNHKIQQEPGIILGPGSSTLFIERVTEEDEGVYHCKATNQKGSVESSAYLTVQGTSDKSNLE
UniProt P35968, 20-764: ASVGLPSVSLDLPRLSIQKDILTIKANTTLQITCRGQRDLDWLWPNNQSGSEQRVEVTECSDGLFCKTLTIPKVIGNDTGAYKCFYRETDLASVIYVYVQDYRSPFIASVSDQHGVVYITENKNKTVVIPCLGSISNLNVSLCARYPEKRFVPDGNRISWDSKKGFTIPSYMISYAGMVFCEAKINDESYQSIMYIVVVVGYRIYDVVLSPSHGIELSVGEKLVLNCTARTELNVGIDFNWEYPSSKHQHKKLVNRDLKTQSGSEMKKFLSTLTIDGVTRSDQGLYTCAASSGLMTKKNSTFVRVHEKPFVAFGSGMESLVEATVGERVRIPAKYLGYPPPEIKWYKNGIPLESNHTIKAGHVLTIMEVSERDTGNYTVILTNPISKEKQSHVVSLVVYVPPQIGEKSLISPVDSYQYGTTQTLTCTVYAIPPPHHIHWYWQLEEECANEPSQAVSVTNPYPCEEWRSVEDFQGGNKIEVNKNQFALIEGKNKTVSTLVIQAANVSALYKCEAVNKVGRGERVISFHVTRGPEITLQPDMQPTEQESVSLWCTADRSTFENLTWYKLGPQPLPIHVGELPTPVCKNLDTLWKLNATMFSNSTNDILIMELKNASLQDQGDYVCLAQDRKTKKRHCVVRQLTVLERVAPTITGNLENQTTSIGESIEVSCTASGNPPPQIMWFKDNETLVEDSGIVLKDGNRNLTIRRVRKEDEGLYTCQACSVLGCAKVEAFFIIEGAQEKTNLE

A word on the Kd: it is the constant that tells how readily two partners part at equilibrium.

In one data set the target is VEGFR1 (Homo sapiens) (UniProt P17948). Nature of the data set: SPR. To be noted: unit printed as M-1, purified recombinant protein, protein details: R&D Systems, single-stranded DNA.
Another data set addresses VEGFR2 (Homo sapiens) (UniProt P35968). Nature of the data set: SPR. To be noted: aptamer immobilized, unit printed as M-1, purified recombinant protein, protein details: R&D Systems, single-stranded DNA.
Setting [1] is: VEGFR1 immobilized, single cycle analysis <10 nM.
Where [2] appears, read: VEGFR1 immobilized, single cycle analysis <20 nM.
Where [3] appears, read: aptamer immobilized, single cycle analysis 50-10 nM.

Construct, isoform or probe ends are uncertain for at least one entry.

For “TGGGTTTAGGTTGGGTGGTTGGGTGGGGGGGGCG [No. 23]”, the dissociation constant Kd with VEGFR1 (Homo sapiens) (setting [1]) stood at 0.922 nM; with VEGFR1 (Homo sapiens) (aptamer immobilized, single cycle analysis 33-10 nM) it was 0.38 nM; with VEGFR2 (Homo sapiens) (single cycle analysis 300-19 nM), 15 nM; with VEGFR2 (Homo sapiens) (single cycle analysis <300 nM), 14.9 nM.
As for “GGGGGAGTGATGTTGGGGTTGGGGGGTGGGGGCG [No. 24]”, the Kd with VEGFR1 (Homo sapiens) (setting [2]) worked out at 0.353 nM; with VEGFR2 (Homo sapiens) (single cycle analysis <300 nM), 22 nM.
For the sequence “GTCGTGGCGGGGTTTTGTTTTGGTCGGGGGGTG [No. 17]”, the Kd with VEGFR1 (Homo sapiens) (setting [2]) was determined as 1.19 nM; with VEGFR1 (Homo sapiens) (setting [3]), 0.26 nM; in the data set with VEGFR2 (Homo sapiens) (single cycle analysis 100-12.5 nM), 12 nM; in the data set with VEGFR2 (Homo sapiens) (single cycle analysis <100 nM), 164 nM.
Consider “GTGATGGTCGGAGATGGATGGGGCAGCTTAGGTC [No. 11]”, for which the Kd came to 5.12 nM with VEGFR1 (Homo sapiens) (setting [2]); 0.0077 nM with VEGFR1 (Homo sapiens) (aptamer immobilized, single cycle analysis 25-5 nM); 83 nM with VEGFR2 (Homo sapiens) (single cycle analysis 300-19 nM, column printed VEGFRx); 82.8 nM with VEGFR2 (Homo sapiens) (single cycle analysis <300 nM).
As for “GCTGATAGGATGGGTTGTAGGTCTAGGGGGGGGCC [No. 02]”, the Kd with VEGFR2 (Homo sapiens) (single cycle analysis <300 nM) is 31.5 nM.
With “GTCGTGTTTGTTGTTGTTTTCATTTTTGCGGCCC [No. 01]”, the Kd with VEGFR2 (Homo sapiens) (single cycle analysis <300 nM) was found to be 103 nM.
Take “GGGGGGTGGGGTCGGGTGTTGGTCGTGGGGGGCG [No. 18]”: the Kd came out at 2.09 nM with VEGFR1 (Homo sapiens) (setting [2]), 0.012 nM with VEGFR1 (Homo sapiens) (setting [3]), 17 nM in the data set with VEGFR2 (Homo sapiens) (single cycle analysis 150-8 nM) and 16.9 nM in the data set with VEGFR2 (Homo sapiens) (single cycle analysis <150 nM).
As to “TAGGTGGGTTCGGGGGGTGCTGGTCGGGGGGTG [No. 22]”, the Kd stood at 1.07 nM with VEGFR1 (Homo sapiens) (setting [1]), 0.76 nM with VEGFR1 (Homo sapiens) (setting [3]), 31 nM with VEGFR2 (Homo sapiens) (single cycle analysis 240-15 nM) and 31 nM with VEGFR2 (Homo sapiens) (single cycle analysis <240 nM).
